Measured values: paper PMC8277845
These are yes or no findings as the source states them, for the method shown. Binding seen in cells or lysates may run through a third protein. Some results given as binding are weak or reduced against the parent protein; the word gives no strength. Where a sequence is shown, tags or fusion partners need not be part of it.

Chains of the proteins cited; added tags and fusions are not shown.
UniProt P19474: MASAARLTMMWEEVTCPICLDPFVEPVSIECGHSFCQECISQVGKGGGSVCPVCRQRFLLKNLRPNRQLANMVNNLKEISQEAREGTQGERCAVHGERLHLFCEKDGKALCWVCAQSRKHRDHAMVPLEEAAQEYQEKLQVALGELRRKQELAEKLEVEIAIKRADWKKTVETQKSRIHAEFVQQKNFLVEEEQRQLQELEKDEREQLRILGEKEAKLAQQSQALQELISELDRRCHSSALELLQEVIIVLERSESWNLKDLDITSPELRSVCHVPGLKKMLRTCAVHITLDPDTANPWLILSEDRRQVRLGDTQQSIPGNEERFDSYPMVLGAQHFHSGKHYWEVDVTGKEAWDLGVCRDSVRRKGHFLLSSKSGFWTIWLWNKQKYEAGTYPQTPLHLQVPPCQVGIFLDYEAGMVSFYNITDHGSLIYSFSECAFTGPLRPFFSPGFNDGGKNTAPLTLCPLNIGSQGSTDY

Target: tripartite motif-containing protein 21 (TRIM21), Flag-tagged (UniProt P19474)
Test: co-IP; TRIM21-Flag co-expressed with HHARI-Myc, EFP-Myc or HERC5-Myc in HEK293 cells; lysates (Western & IP lysis buffer) immunoprecipitated with mouse control IgG or mouse Flag antibodies and protein A/G agarose, 4 h or overnight at 4 °C; blot with rabbit Flag and mouse Myc antibodies

- binding: binds
B1: HECT and RLD domain containing E3 ubiquitin protein ligase 5 (HERC5), Myc-tagged (enzyme, UniProt Q9UII4 1-1024)
chain: MERRSRRKSRRNGRSTAGKAAATQPAKSPGAQLWLFPSAAGLHRALLRRVEVTRQLCCSPGRLAVLERGGAGVQVHQLLAGSGGARTPKCIKLGKNMKIHSVDQGAEHMLILSSDGKPFEYDNYSMKHLRFESILQEKKIIQITCGDYHSLALSKGGELFAWGQNLHGQLGVGRKFPSTTTPQIVEHLAGVPLAQISAGEAHSMALSMSGNIYSWGKNECGQLGLGHTESKDDPSLIEGLDNQKVEFVACGGSHSALLTQDGLLFTFGAGKHGQLGHNSTQNELRPCLVAELVGYRVTQIACGRWHTLAYVSDLGKVFSFGSGKDGQLGNGGTRDQLMPLPVKVSSSEELKLESHTSEKELIMIAGGNQSILLWIKKENSYVNLKRTIPTLNEGTVKRWIADVETKRWQSTKREIQEIFSSPACLTGSFLRKRRTTEMMPVYLDLNKARNIFKELTQKDWITNMITTCLKDNLLKRLPFHSPPQEALEIFFLLPECPMMHISNNWESLVVPFAKVVCKMSDQSSLVLEEYWATLQESTFSKLVQMFKTAVICQLDYWDESAEENGNVQALLEMLKKLHRVNQVKCQLPESIFQVDELLHRLNFFVEVCRRYLWKMTVDASENVQCCVIFSHFPFIFNNLSKIKLLHTDTLLKIESKKHKAYLRSAAIEEERESEFALRPTFDLTVRRNHLIEDVLNQLSQFENEDLRKELWVSFSGEIGYDLGGVKKEFFYCLFAEMIQPEYGMFMYPEGASCMWFPVKPKFEKKRYFFFGVLCGLSLFNCNVANLPFPLALFKKLLDQMPSLEDLKELSPDLGKNLQTLLDDEGDNFEEVFYIHFNVHWDRNDTNLIPNGSSITVNQTNKRDYVSKYINYIFNDSVKAVYEEFRRGFYKMCDEDIIKLFHPEELKDVIVGNTDYDWKTFEKNARYEPGYNSSHPTIVMFWKAFHKLTLEEKKKFLVFLTGTDRLQMKDLNNMKITFCCPESWNERDPIRALTCFSVLFLPKYSTMETVEEALQEAINNNRGFG
